PubChem BioAssay AID504764 | Drosophila RNAi Screening Center – 2011

Assay: 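Genes whose knock-down alters Notch-dependent transcription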 (primary screen)
Cell system: Drosophila Kc167 cells
Knock-down reagent: long dsRNA against Drosophila genes
Time to read-out: about 5 days (4 days dsRNA, then 24 h after transfection)
Treatment: transfection of constitutively active membrane-tethered Notch lacking the extracellular domain, read 24 h later
Detection: 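Firefly luciferase from an E(spl)m3 reporter with active Notch, plus control-promoter and uninduced reporter wells for normalisation; unnormalised counts, duplicate wells a and b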
Scale: induced reporter light, run 1, well a and induced reporter light, run 1, well b: higher = more light from the Notch target reporter with active Notch; control promoter light, run 1, well a and control promoter light, run 1, well b: higher = more light from the viral control promoter (cell number, transfection, viability); uninduced reporter light, run 1, well a: higher = more light from the Notch target reporter without active Notch
Hit rule: 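Wells with low control signal or poorly matching duplicates excluded; duplicates averaged; per source plate, z beyond ±2 for induced/control log2 ratio or beyond ±1.8 for induced/uninduced marks a hit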
Calls: active = modifier hit (raised or lowered Notch signal); inactive = not a hit
The deposit covers about 22,000 reagents; below is an unselected part of those with a known target gene and a result. Over the whole deposit, 403 (1.9%) are marked active. 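Unnormalised raw counts per well; ratio z-scores behind the hit calls and whether each hit raises or lowers signal are not deposited.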 Names joined by + are all predicted targets of the reagent. The record does not give: the amount of reagent.

| Target gene | DRSC id | induced reporter light, run 1, well a | induced reporter light, run 1, well b | control promoter light, run 1, well a | control promoter light, run 1, well b | uninduced reporter light, run 1, well a | call |
| --- | --- | --- | --- | --- | --- | --- | --- |
| CG9915 | DRSC21565 | – | – | – | – | – | inactive |
| TTLL1B | DRSC08594 | 1.91e5 | 2.31e5 | 1.70e5 | 1.64e5 | 11480 | inactive |
| aop | DRSC00801 | 3632 | 3760 | 6425 | 3985 | 2895 | inactive |
| CG15208 | DRSC19654 | 1.31e5 | 1.25e5 | 2.00e5 | 2.01e5 | 9480 | inactive |
| Slip1 | DRSC17146 | 1.46e5 | 1.58e5 | 1.96e5 | 2.34e5 | 9370 | inactive |
| Acyp | DRSC01861 | 1.32e5 | 1.43e5 | 1.39e5 | 1.45e5 | 12330 | inactive |
| CG33232 (retired record) | DRSC08187 | 88825 | 84405 | 2.08e5 | 2.26e5 | 8335 | inactive |
| CG33232 (retired record) | DRSC08495 | 93780 | 1.06e5 | 1.12e5 | 1.15e5 | 7040 | inactive |
| Pat1 | DRSC17750 | 2.29e5 | 1.86e5 | 2.54e5 | 2.20e5 | 15450 | inactive |
| CG34033 | DRSC05190 | 81465 | 1.00e5 | 1.06e5 | 1.15e5 | 5800 | inactive |
| lok | DRSC03567 | 2.39e5 | 2.05e5 | 1.35e5 | 1.57e5 | 14488 | active |
| SLIRP2 | DRSC16363 | 81625 | 93625 | 70455 | 65140 | 4950 | inactive |
| CG8128 | DRSC20084 | 2.17e5 | 1.87e5 | 3.01e5 | 2.69e5 | 14685 | inactive |
| rost | DRSC03603 | 2.06e5 | 2.02e5 | 1.77e5 | 1.83e5 | 17240 | inactive |
| CG15771 | DRSC18077 | 92335 | 96850 | 1.23e5 | 1.66e5 | 7765 | inactive |
| CG32225 | DRSC09657 | 3.35e5 | 2.84e5 | 2.86e5 | 2.91e5 | 25555 | inactive |
| Cnep1r1 | DRSC20620 | 1.12e5 | 1.14e5 | 1.53e5 | 1.60e5 | 13905 | inactive |
| Cht12 | DRSC03844 | 57570 | 63825 | 79075 | 73660 | 5815 | inactive |
| Cadps | DRSC21057 | 84745 | 1.02e5 | 80340 | 96555 | 8790 | inactive |
| Cadps | DRSC22200 | – | – | – | – | – | inactive |
| CG6015 | DRSC15948 | 1.05e5 | 1.01e5 | 1.29e5 | 1.40e5 | 7915 | inactive |
| Irbp | DRSC17007 | 88955 | 93855 | 73495 | 54860 | 4940 | inactive |
| Nplp4 | DRSC00391 | 1.47e5 | 1.07e5 | 1.09e5 | 92950 | 9638 | inactive |
| CG34423 + Mthfs | DRSC04088 | 2.09e5 | 1.87e5 | 1.73e5 | 1.62e5 | 15060 | inactive |
| CG34238 | DRSC09040 | 1.99e5 | 1.86e5 | 2.10e5 | 2.24e5 | 12495 | inactive |
| robl62A | DRSC08153 | 1.43e5 | 1.09e5 | 1.76e5 | 1.45e5 | 8538 | inactive |
| Tl | DRSC16885 | 1.90e5 | 2.03e5 | 2.58e5 | 2.56e5 | 14425 | inactive |
| S-Lap2 | DRSC10628 | 1.91e5 | 1.96e5 | 2.34e5 | 1.74e5 | 9978 | inactive |
| sNPF-R | DRSC10836 | 1.55e5 | 98995 | 1.09e5 | 1.11e5 | 10120 | inactive |
| CSN5 | DRSC16592 | 1.85e5 | 1.77e5 | 2.05e5 | 1.90e5 | 17715 | inactive |
| COX6AL2 + Ir75d | DRSC10081 | 1.29e5 | 87980 | 1.28e5 | 1.03e5 | 9050 | inactive |
| Arc42 | DRSC14340 | 1.67e5 | 1.57e5 | 1.41e5 | 1.38e5 | 11745 | inactive |
| Arc42 | DRSC15627 | 2.19e5 | 1.63e5 | 1.84e5 | 1.61e5 | 14505 | inactive |
| CG43996 | DRSC19456 | 84185 | 68985 | 80035 | 1.04e5 | 10295 | inactive |
| CG43996 | DRSC19457 | 95140 | 74755 | 95930 | 96980 | 10455 | inactive |
| Jheh2 | DRSC06530 | 1.74e5 | 1.46e5 | 1.55e5 | 1.85e5 | 12250 | inactive |
| EndoG | DRSC07292 | 1.39e5 | 1.51e5 | 1.59e5 | 1.51e5 | 12560 | inactive |
| Ice2 | DRSC14268 | 11320 | 14620 | 13050 | 12078 | 935 | inactive |
| CG14659 | DRSC12245 | 1.09e5 | 1.07e5 | 1.43e5 | 1.11e5 | 9245 | inactive |
| Yif1 | DRSC15817 | 1.18e5 | 1.20e5 | 1.65e5 | 1.44e5 | 7888 | inactive |
| gig | DRSC11351 | 1.86e5 | 1.97e5 | 2.75e5 | 2.50e5 | 13425 | inactive |
| H | DRSC16692 | 2.27e5 | 2.00e5 | 2.05e5 | 2.29e5 | 31460 | active |
| Afg3l2 | DRSC10657 | 1.18e5 | 83150 | 87975 | 80900 | 8720 | inactive |
| CG16825 | DRSC02526 | 1.53e5 | 1.73e5 | 1.59e5 | 1.79e5 | 15045 | inactive |
| Ca-alpha1D | DRSC03284 | 1.66e5 | 2.19e5 | 1.36e5 | 1.55e5 | 12495 | inactive |
| HUWE1 | DRSC20089 | 1.12e5 | 89105 | 1.24e5 | 97145 | 17335 | inactive |
| Dpy-30L1 | DRSC02959 | 1.10e5 | 1.39e5 | 70425 | 98395 | 17438 | inactive |
| CG15909 | DRSC04977 | 1.51e5 | 1.76e5 | 1.59e5 | 1.42e5 | 11810 | inactive |
| muskelin | DRSC07273 | 1.01e5 | 87940 | 1.26e5 | 1.30e5 | 8282 | inactive |
| chinmo | DRSC00292 | 1.95e5 | 2.08e5 | 1.84e5 | 1.98e5 | 17905 | inactive |
| chinmo | DRSC00485 | 2.12e5 | 1.71e5 | 1.41e5 | 1.67e5 | 12385 | inactive |
| chinmo | DRSC00509 | 93045 | 1.09e5 | 69070 | 55515 | 8585 | inactive |
| chinmo | DRSC22413 | – | – | – | – | – | active |

In a second layout: 8 of the entries above
Target gene	DRSC id	induced reporter light, run 1, well a	induced reporter light, run 1, well b	control promoter light, run 1, well a	control promoter light, run 1, well b	uninduced reporter light, run 1, well a	call
Pat1	DRSC17750	2.29e5	1.86e5	2.54e5	2.20e5	15450	inactive
CG34033	DRSC05190	81465	1.00e5	1.06e5	1.15e5	5800	inactive
lok	DRSC03567	2.39e5	2.05e5	1.35e5	1.57e5	14488	active
SLIRP2	DRSC16363	81625	93625	70455	65140	4950	inactive
CG8128	DRSC20084	2.17e5	1.87e5	3.01e5	2.69e5	14685	inactive
rost	DRSC03603	2.06e5	2.02e5	1.77e5	1.83e5	17240	inactive
CG15771	DRSC18077	92335	96850	1.23e5	1.66e5	7765	inactive
CG32225	DRSC09657	3.35e5	2.84e5	2.86e5	2.91e5	25555	inactive
